# PubChem BioAssay AID504834 (National Center for Advancing Translational Sciences (NCATS), 2011)
# Out of some 320,000 compounds screened, about 22,000 (6.9%) were called active. Inconclusive means that the source gave no clear call. Such entries were picked first, then a sample of the others. The call rests on the fitted dose curve; in most records, active means well fitted inhibition curve with a large enough effect; inconclusive means small, poorly fitted or top-dose-only effect, or another doubt; inactive means no such curve, though single readings can be large or run the other way. A potency beside an inconclusive call is a rough fit, not a confirmed value.
# Assay: Primary qHTS for delayed death inhibitors of the malarial parasite plastid, 96 hour incubation
# Conditions: P. falciparum luciferase reporter growth; series mostly up to 28.7 µM; activity change, negative = inhibition: at the top concentration
# Summary of the method: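 Erythrocytes infected with luciferase-expressing P. falciparum were dispensed at 2% hematocrit and 0.05% parasitemia (final), then incubated with compounds 96 hours at 37 C in 5% CO2. Luminescence after detection reagent addition reported growth.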
# On the % scale 0 is the no-effect control and ±100 the full control effect; potency means the concentration at half of the fitted maximal effect.
Structure (SMILES),Potency,"activity change, negative = inhibition"
CCN(CC)S(=O)(=O)c1cccc(-c2nnc(SCc3nc4ccccc4s3)o2)c1,"inconclusive: 13.1 µM [inhibitor, partial curve, poor fit]",
COc1ccc(-c2nnc(NC(=O)c3ccc([N+](=O)[O-])o3)o2)c(OC)c1,active: 11.7 µM,
COc1ccc(Cn2c(=O)[nH]c3cc(C(=O)N4CCN(c5ccccc5F)CC4)ccc3c2=O)cc1,active: 11.7 µM,
O=C(/C=C/c1ccc([N+](=O)[O-])cc1)Nc1ncc([N+](=O)[O-])s1,,inactive: 1.78%
CC(=O)Nc1ccc(S(=O)(=O)NCCC(=O)Nc2ccc(C)c(F)c2)cc1,"inconclusive: 5.86 µM [inhibitor, partial curve, poor fit]",
COc1ccc(C)cc1Nc1n[n+](C)c(-c2ccc(O)cc2O)s1,"inconclusive: 0.0026 µM [inhibitor, full curve, poor fit]",
Cc1ccccc1OCC(O)Cn1nnc2ccccc21 (configuration not stated),"inconclusive: 11.7 µM [inhibitor, single point]",
C/C=C(\C)C(=O)N1CC2(CC(c3cccc(NC(=O)COc4ccc(Cl)cc4)c3)=NO2)C[C@@H]1C(N)=O (some centres not stated),"inconclusive: 10.4 µM [inhibitor, single point]",
CCC(C)NC(=O)C1CCN(S(=O)(=O)c2cccc3nonc23)CC1 (configuration not stated),,inactive: 15.8%
CC(=O)c1cccc(Nc2cc(C)nc3ccc(C)cc23)c1,"inconclusive: 1.04 µM [inhibitor, partial curve, poor fit]",
Cc1ccc(-c2nnc(NCc3nc4ccccc4[nH]3)c3ccccc23)cc1S(=O)(=O)N1CCCCC1,active: 13.1 µM,
CC(C)CC(=O)N1CCN(Cc2ccccc2[N+](=O)[O-])CC1,"inconclusive: 2.94 µM [inhibitor, full curve]",
COCCn1c(C)cc(C(=O)COc2nc3ccccc3nc2C)c1C,"inconclusive: 13.1 µM [inhibitor, partial curve, poor fit]",
CC1CC2=C(C(=O)O1)C(c1ccccc1)Nc1ccccc1N2 (configuration not stated),"inconclusive: 18.5 µM [inhibitor, single point]",
CC1CCC(NC(=O)C(Cc2ccccc2)n2cccc2)CC1 (configuration not stated),"inconclusive: 18.5 µM [inhibitor, single point]",
CCC(C)(C)c1ccc(OCCN2C(=O)NC(C)(C)C2=O)cc1,,inactive: -1.01%
COC(=O)C1=C(c2c(C)noc2C)C[C@@H]2CC[C@H]1N2C(=O)NCCOc1ccc(OC)cc1,"inconclusive: 14.7 µM [inhibitor, single point]",
COc1cc(/C=N\NC(=O)CC(=O)NCCc2ccccc2)ccc1O,active: 10.4 µM,
O=C(NCCNC(=O)c1ccccc1F)c1ccco1,"inconclusive: 5.22 µM [inhibitor, partial curve]",
COc1ccc(NC(=O)Cc2nnc(SCC(=O)Nc3nccs3)n2C)cc1,active: 3.29 µM,
COCC(=O)NCc1nc2ccccc2[nH]1,"inconclusive: 10.4 µM [inhibitor, single point]",
CN(CC(=O)N1CCc2ccccc21)S(=O)(=O)c1cccc2cccnc12,"inconclusive: 10.4 µM [inhibitor, partial curve, poor fit]",
CCOC(=O)c1c(NC(=O)CSc2nnc(N)s2)sc(C)c1-c1ccc(C)cc1,active: 10.4 µM,

Structure (SMILES),Potency,"activity change, negative = inhibition"
Cc1cc(/C([O-])=C(/C(=S)Nc2ccc(F)cc2)[n+]2ccccc2)c(C)n1-c1ccc(F)cc1,"inconclusive: 18.5 µM [inhibitor, single point]",
COc1cc(/C=N/Nc2ccccn2)cc(OC)c1O,,inactive: -14.7%
CNC(=S)Nc1cccc(C(=O)OC)c1,,inactive: -0.404%
CN1CCc2c(sc(NC(=O)c3ccc(S(=O)(=O)N4CCc5ccccc54)cc3)c2C(N)=O)C1,"inconclusive: 4.15 µM [inhibitor, partial curve]",
CCC(C#N)(CC)P(=S)(c1ccccc1)c1ccccc1,"inconclusive: 10.4 µM [inhibitor, single point]",
O=C(NC(Cc1ccccc1)c1ccc2c(c1)OCCCO2)c1ccc(F)cc1 (configuration not stated),active: 9.28 µM,
CCOc1ccc(NC(=O)CN2CCCC2c2cccs2)cc1S(=O)(=O)N1CCCC1 (configuration not stated),active: 14.7 µM,
CCc1ccc(NC(=O)CSc2nc3ccccc3c(=O)n2CCCC(=O)N2CCCC2)cc1,,inactive: -25.4%
O=C(CSc1ccccn1)Nc1nc2ccc(Br)cc2s1,"inconclusive: 2.33 µM [inhibitor, full curve, poor fit]",
Nc1nn(-c2ccccc2)c(N)c1N=Nc1cccc(F)c1,,inactive: 200%
CCOC(=O)C1=C(C)NC(=O)NC1c1ccc(C)o1 (configuration not stated),"inconclusive: 18.5 µM [inhibitor, single point]",
Cc1cc(=O)oc2cc(OC(=O)CCN3C(=O)c4ccccc4C3=O)ccc12,"inconclusive: 0.0037 µM [inhibitor, full curve, poor fit]",
COC(=O)c1cc(OC)c(OC)cc1NC(=O)CSc1nnnn1Cc1ccccc1,"inconclusive: 11.7 µM [inhibitor, single point]",
C[C@H]1CCCC(=O)CCCCCc2cc(O)cc(O)c2C(=O)O1,active: 9.28 µM,
CCOc1ccccc1NC(=O)c1nnn(-c2ccc3c(c2)OCCO3)c1N,"inconclusive: 3.7 µM [inhibitor, partial curve]",
Cc1cc(=O)n2[nH]c(N)c(N=Nc3ccccc3F)c2n1,,inactive: -22.2%
Cc1ccc(S(=O)(=O)N(CC(=O)N=Nc2c(O)[nH]c3ccccc23)c2ccc(C)c(C)c2)cc1,"inconclusive: 0.233 µM [inhibitor, full curve]",
CCN(CC)C(=O)CSc1nnc(-c2c[nH]c3ccccc23)o1,active: 0.465 µM,
CC(C)(C)c1ccc(C(=O)NC(=S)NCc2cccnc2)cc1,,inactive: -16.6%
CC(CCc1ccc(O)cc1)NCC(O)c1ccc(O)cc1 (configuration not stated),"inconclusive: 10.7 µM [inhibitor, partial curve, poor fit]",
O=C(c1ccc2ccccc2n1)N1CCN(Cc2c(F)cccc2Cl)CC1,,inactive: 0.595%
Cc1ccc(N2CN=C(c3ccccc3)NC2=S)cc1,,inactive: -1.98%
COc1ccc(Br)cc1C1Nc2cccc3cccc(c23)N1,"inconclusive: 18.5 µM [inhibitor, single point]",
Cn1c(NC2CCCCC2)cc(=O)n(C)c1=O,active: 10.4 µM,

# Reprinted at random: 5 records from the list
Structure (SMILES),Potency,"activity change, negative = inhibition"
O=C(NC(Cc1ccccc1)c1ccc2c(c1)OCCCO2)c1ccc(F)cc1 (configuration not stated),active: 9.28 µM,
CCOc1ccc(NC(=O)CN2CCCC2c2cccs2)cc1S(=O)(=O)N1CCCC1 (configuration not stated),active: 14.7 µM,
Cn1c(NC2CCCCC2)cc(=O)n(C)c1=O,active: 10.4 µM,
CNC(=S)Nc1cccc(C(=O)OC)c1,,inactive: -0.404%
Cc1ccc(N2CN=C(c3ccccc3)NC2=S)cc1,,inactive: -1.98%

# (continued)

Structure (SMILES),Potency,"activity change, negative = inhibition"
Cc1ccc(OCC(=O)NC(=S)Nc2cccc(NC(=O)c3ccc(Cl)cc3Cl)c2)cc1,,inactive: 1.66%
Clc1ccc([C@H](Cn2ccnc2)OCc2c(Cl)cccc2Cl)c(Cl)c1,active: 2.03 µM,
CC1CCc2ccccc2N1C(=N)N(C)C (configuration not stated),,inactive: 41.6%
COc1ccc(N2CC(C(=O)Nc3c4c(nn3-c3ccccc3)CS(=O)(=O)C4)CC2=O)cc1 (configuration not stated),,inactive: 11.1%
Cc1ccccc1CSc1nsc(N)n1,,inactive: 5.87%
O=C(NCCCN1CCOCC1)C1COc2ccccc2O1 (configuration not stated),,inactive: 97.4%
COC(=O)C/C=C/[C@@H](C)[C@@H](/C=N/OC[C@@H](C)[C@H](OCc1ccccc1)C(C)C)NS(=O)(=O)c1ccc(C)cc1,active: 9.28 µM,
CCn1c(=O)c(CCC(=O)NCCN2CCOCC2)c(C)c2c(C)nn(-c3ccccc3)c21,"inconclusive: 0.131 µM [inhibitor, partial curve, poor fit]",
Cc1ccccc1Nc1sc(C(=O)Nc2cccc(Cl)c2)c(N)c1C(N)=O,"inconclusive: 18.5 µM [inhibitor, single point]",
COc1ccccc1CNC(=O)CCC(=O)N1CCOc2ccc(Cl)cc21,"inconclusive: 18.5 µM [inhibitor, single point]",
O=C(c1ccc(S(=O)(=O)N2CCCCC2)cc1)N1CCc2ccccc2C1,active: 3.29 µM,
CC(=O)Nc1ccc(C2CN(C)CC2C(=O)c2ccc(Cl)cc2)cc1 (configuration not stated),"inconclusive: 18.5 µM [inhibitor, single point]",
Cc1cccc(NC(=S)N2CCN(Cc3ccccc3)CC2)c1C,"inconclusive: 10.4 µM [inhibitor, single point]",
COc1ccc(CN(C(=O)c2cc3ccccc3oc2=O)C2CCS(=O)(=O)C2)cc1OC (configuration not stated),,inactive: 37.9%
O=C(Nc1ccccc1OC(F)F)c1ccc(S(=O)(=O)N2CCCC2)cc1,"inconclusive: 9.28 µM [inhibitor, partial curve, poor fit]",
CCOC(=O)c1c(NC(=S)Nc2cccc(C)c2)sc2c1CC(C)(C)SC2,"inconclusive: 11.7 µM [inhibitor, single point]",
Cc1csc(NC(=S)Nc2cccc(Cl)c2)n1,,inactive: -84.6%
COc1ccc(C(=O)Nc2ccc(Br)cc2F)cc1S(=O)(=O)N1CCCC1,active: 10.4 µM,
Clc1ccc(CSc2snnc2-c2ccccc2)cc1,"inconclusive: 11.7 µM [inhibitor, partial curve, poor fit]",
CCOC(=O)CSCC(=O)N1N=C(c2cccs2)CC1c1ccc(F)cc1 (configuration not stated),"inconclusive: 11.7 µM [inhibitor, single point]",
COc1ccccc1C(=O)OCC(=O)Nc1ccccc1OC(F)F,,inactive: 84%
O=C(O)c1c2c(nc3ccc(S(=O)(=O)N4CCC(C(=O)NCc5ccccc5Cl)CC4)cc13)CCCC2,"inconclusive: 1.85 µM [inhibitor, full curve]",
COc1ccc(-c2nnn(Cc3nn[nH]n3)n2)cc1OC,"inconclusive: 1.31 µM [inhibitor, full curve]",
COc1cc([N+](=O)[O-])ccc1NC(=O)Nc1ccc(C(=O)N2CCCC2)cc1,"inconclusive: 9.28 µM [inhibitor, partial curve]",
